Measured values as given in doi:10.1101/2020.06.11.144329.
These are yes or no findings as the source states them, for the method shown. In cells and extracts the contact can be indirect. Sequences can lack the tags named with a protein.

Target: T1, IGLR-2∷mCherry (C. elegans) (UniProt P34595)
T1 sequence: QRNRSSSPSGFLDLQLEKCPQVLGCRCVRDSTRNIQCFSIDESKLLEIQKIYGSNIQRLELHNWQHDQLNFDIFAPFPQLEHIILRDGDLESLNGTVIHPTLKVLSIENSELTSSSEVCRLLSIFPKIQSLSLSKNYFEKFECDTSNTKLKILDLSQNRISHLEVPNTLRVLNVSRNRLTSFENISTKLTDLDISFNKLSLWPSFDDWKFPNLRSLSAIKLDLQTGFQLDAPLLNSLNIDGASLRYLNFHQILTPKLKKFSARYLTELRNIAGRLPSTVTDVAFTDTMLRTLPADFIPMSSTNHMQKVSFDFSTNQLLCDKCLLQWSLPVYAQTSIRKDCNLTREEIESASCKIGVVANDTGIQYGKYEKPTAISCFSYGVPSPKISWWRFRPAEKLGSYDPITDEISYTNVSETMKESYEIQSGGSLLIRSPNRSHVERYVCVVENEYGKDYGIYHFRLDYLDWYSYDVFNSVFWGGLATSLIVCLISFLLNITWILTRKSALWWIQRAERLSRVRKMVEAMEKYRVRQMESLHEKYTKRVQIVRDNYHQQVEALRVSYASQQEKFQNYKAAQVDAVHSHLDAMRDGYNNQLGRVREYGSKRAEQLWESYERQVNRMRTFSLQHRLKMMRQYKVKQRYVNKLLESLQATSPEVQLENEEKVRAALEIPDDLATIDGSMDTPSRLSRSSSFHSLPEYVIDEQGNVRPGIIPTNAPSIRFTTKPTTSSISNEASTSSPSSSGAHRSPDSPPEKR
Test: FRET or BRET

binding: no binding
B1: PAQR-1∷GFP (receptor, UniProt Q94177 1-434)
chain: MNPDEVNRALGHYLNDADSGELVVEDSTTVQVKNPEARKTGDKIEVFYSRKTTVVSPTNSDDEDADFCSDSELLPQQEGHRSRATSFAGRIRAGSDDEAMPKHTILRYRRKKGGQWREINLQGTPDKRKDDEDELEVDVKEDRSEQTGIVTKTYEARWKVLKYEHLPEWLQDNEFLRHGHRPPLPSFSECFKSIWSLHTETGNIWTHLIGCVAFFFLACWFLTRPDNHIQFQEKVVFSFFFAGAVLCLGLSFAFHTLSCHSVNVVKIFCKLDYMGISLLIIGSFIPWIYYGFYCRREPKITYIAMVSVLGIGAIVVSLWDKFSESRFRPIRAAVFVGMGCSGVIPTIHYIITDGVHSLFADNSFHWLLLMAFLYLLGAGLYATRTPERFFPGKCDIWFQSHQLFHTCVVIAAFVHYYGISEMAFARLNEQCPVR
